{"source": "paper PMC7691401", "about": "(EJNMMI Radiopharmacy and Chemistry, 2020)", "assay": "general procedure: peptide synthesis; HBTU/HOBt and DIPEA (HATU/HOBt/DIPEA in the procedure)", "settings": "conjugation step", "data": [{"substance": "AAZTA^5-Chx-2-Nal-Lys-Urea-Glu", "values": [{"measurement": "conjugation yield", "value": 12, "unit": "%"}]}]}
